Record: PubChem BioAssay AID1259405 (NCATS, 2018)

- Screen: 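Mouse-designed siRNAs used to find CHO productivity engineering targets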 (primary screen)
- Cell system: Chinese hamster CHO-K1 ovary cells with stable secreted eGFP expression
- Reagent: single siRNA against mouse genes, 0.8 pmol siRNA per well (2 µl of 400 nM stock)
- Timing: 3 days
- Detection: 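Percent of the per-plate non-targeting control median for intracellular GFP per well by laser scanning cytometry and for cell viability by ATP luminescence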
- Direction: GFP, % of control: higher = more GFP per well, higher productivity; viability (ATP), % of control: higher = more viable cells (more ATP)
- Call rule: 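a knock-down is called active if GFP reaches 120% or more of non-targeting control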
The deposit covers about 50,000 reagents; this is an unselected part. About 4,000 of them (8%) count as active. 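Mouse siRNA library applied to hamster cells; one well for each siRNA.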 Reagent sequences are not shown.

The first 8 entries, ahead of the listing:
Target gene | PubChem SID | GFP, % of control | viability (ATP), % of control | outcome
Vmn1r35 (vomeronasal 1 receptor 35) | SID363556635 | 88.8 | 47.3 | inactive
Vmn1r35 (vomeronasal 1 receptor 35) | SID363563539 | 57.6 | 49.6 | inactive
Vmn1r35 (vomeronasal 1 receptor 35) | SID363587085 | 80.2 | 96.8 | inactive
Upk1b (uroplakin 1B) | SID363556833 | 49.7 | 48.5 | inactive
Upk1b (uroplakin 1B) | SID363563737 | 62.2 | 91.3 | inactive
Upk1b (uroplakin 1B) | SID363587283 | 97.5 | 109 | inactive
Or4c117 (olfactory receptor family 4 subfamily C member 117) | SID363554125 | 49.7 | 44.2 | inactive
Or4c117 (olfactory receptor family 4 subfamily C member 117) | SID363567572 | 91.8 | 68.1 | inactive

Main list, repeating the preview:
Target gene | PubChem SID | GFP, % of control | viability (ATP), % of control | outcome
Vmn1r35 (vomeronasal 1 receptor 35) | SID363556635 | 88.8 | 47.3 | inactive
Vmn1r35 (vomeronasal 1 receptor 35) | SID363563539 | 57.6 | 49.6 | inactive
Vmn1r35 (vomeronasal 1 receptor 35) | SID363587085 | 80.2 | 96.8 | inactive
Upk1b (uroplakin 1B) | SID363556833 | 49.7 | 48.5 | inactive
Upk1b (uroplakin 1B) | SID363563737 | 62.2 | 91.3 | inactive
Upk1b (uroplakin 1B) | SID363587283 | 97.5 | 109 | inactive
Or4c117 (olfactory receptor family 4 subfamily C member 117) | SID363554125 | 49.7 | 44.2 | inactive
Or4c117 (olfactory receptor family 4 subfamily C member 117) | SID363567572 | 91.8 | 68.1 | inactive
Or4c117 (olfactory receptor family 4 subfamily C member 117) | SID363584929 | 35.5 | 84.2 | inactive
Atp1a1 (ATPase, Na+/K+ transporting, alpha 1 polypeptide) | SID363569924 | 103 | 105 | inactive
Atp1a1 (ATPase, Na+/K+ transporting, alpha 1 polypeptide) | SID363576964 | 150 | 123 | active
Atp1a1 (ATPase, Na+/K+ transporting, alpha 1 polypeptide) | SID363578372 | 82.7 | 93.2 | inactive
Galr3 (galanin receptor 3) | SID363571105 | 76.7 | 37.3 | inactive
Galr3 (galanin receptor 3) | SID363571457 | 71.8 | 82 | inactive
Galr3 (galanin receptor 3) | SID363571809 | 67.2 | 61.9 | inactive
Or5al6 (olfactory receptor family 5 subfamily AL member 6) | SID363562190 | 56 | 52.7 | inactive
Or5al6 (olfactory receptor family 5 subfamily AL member 6) | SID363567328 | 117 | 103 | inactive
Or5al6 (olfactory receptor family 5 subfamily AL member 6) | SID363584685 | 103 | 52.2 | inactive
Rnf125 (ring finger protein 125) | SID363573544 | 82.7 | 76.1 | inactive
Rnf125 (ring finger protein 125) | SID363581288 | 36.2 | 28.6 | inactive
Rnf125 (ring finger protein 125) | SID363583752 | 67.5 | 82.6 | inactive
Wnk4 (WNK lysine deficient protein kinase 4) | SID363571030 | 61.3 | 72.1 | inactive
Gbx2 (gastrulation brain homeobox 2) | SID363569402 | 65.4 | 81.5 | inactive
Gbx2 (gastrulation brain homeobox 2) | SID363577146 | 33.4 | 50.1 | inactive
Gbx2 (gastrulation brain homeobox 2) | SID363578554 | 64.2 | 48.8 | inactive
Actrt1 (actin-related protein T1) | SID363572206 | 93 | 64.8 | inactive
Actrt1 (actin-related protein T1) | SID363573966 | 99.1 | 93.5 | inactive
Vmn1r-ps103 (vomeronasal 1 receptor, pseudogene 103) | SID363556576 | 59.4 | 54.2 | inactive
Vmn1r-ps103 (vomeronasal 1 receptor, pseudogene 103) | SID363563480 | 71.5 | 64.3 | inactive
Vmn1r-ps103 (vomeronasal 1 receptor, pseudogene 103) | SID363587026 | 90.1 | 97.1 | inactive
Polr3a (polymerase (RNA) III (DNA directed) polypeptide A) | SID363569368 | 65 | 83 | inactive
Polr3a (polymerase (RNA) III (DNA directed) polypeptide A) | SID363577112 | 110 | 62.7 | inactive
Polr3a (polymerase (RNA) III (DNA directed) polypeptide A) | SID363578520 | 76.2 | 85.6 | inactive
Kremen2 (kringle containing transmembrane protein 2) | SID363544237 | 110 | 65.4 | inactive
Kremen2 (kringle containing transmembrane protein 2) | SID363550565 | 77.1 | 68.5 | inactive
Kremen2 (kringle containing transmembrane protein 2) | SID363557114 | 70.4 | 72.8 | inactive
Man2a2 (mannosidase 2, alpha 2) | SID363569963 | 94.1 | 84.4 | inactive
Man2a2 (mannosidase 2, alpha 2) | SID363577003 | 96.4 | 111 | inactive
Man2a2 (mannosidase 2, alpha 2) | SID363578411 | 117 | 118 | inactive
Xrcc5 (X-ray repair complementing 5) | SID363569486 | 86 | 81.1 | inactive
Xrcc5 (X-ray repair complementing 5) | SID363577230 | 68.4 | 77.7 | inactive
Xrcc5 (X-ray repair complementing 5) | SID363578638 | 61.2 | 84.6 | inactive
Fam98b (family with sequence similarity 98, member B) | SID363553682 | 62.8 | 56.3 | inactive
Fam98b (family with sequence similarity 98, member B) | SID363561639 | 83.1 | 54.4 | inactive
Fam98b (family with sequence similarity 98, member B) | SID363565377 | 64.2 | 67.9 | inactive
Zfp110 (zinc finger protein 110) | SID363541130 | 61.9 | 60.9 | inactive
Zfp110 (zinc finger protein 110) | SID363555757 | 67.7 | 71.3 | inactive
Zfp110 (zinc finger protein 110) | SID363566046 | 32.9 | 68.2 | inactive
Or9g19 (olfactory receptor family 9 subfamily G member 19) | SID363544653 | 58.9 | 65.2 | inactive
Or9g19 (olfactory receptor family 9 subfamily G member 19) | SID363550981 | 99.4 | 82.2 | inactive
Or9g19 (olfactory receptor family 9 subfamily G member 19) | SID363557530 | 78.2 | 53.4 | inactive
Ssxb13 (SSX member B13) | SID363541036 | 1.03 | 179 | inactive
Ssxb13 (SSX member B13) | SID363555663 | 65.7 | 82.3 | inactive
Ssxb13 (SSX member B13) | SID363565952 | 103 | 87.5 | inactive
Dhrs7b (dehydrogenase/reductase 7B) | SID363575231 | 77.6 | 47.9 | inactive
Dhrs7b (dehydrogenase/reductase 7B) | SID363580863 | 80.6 | 63.9 | inactive
Dhrs7b (dehydrogenase/reductase 7B) | SID363582975 | 76.3 | 69.8 | inactive
Myt1l (myelin transcription factor 1-like) | SID363541184 | 42.3 | 56.9 | inactive
Myt1l (myelin transcription factor 1-like) | SID363555811 | 72.5 | 94.6 | inactive
Myt1l (myelin transcription factor 1-like) | SID363566100 | 60.5 | 48.9 | inactive
Rnf126 (ring finger protein 126) | SID363555058 | 124 | 82.7 | active
Rnf126 (ring finger protein 126) | SID363568505 | 63.2 | 52.9 | inactive
Rnf126 (ring finger protein 126) | SID363586564 | 0.865 | 162 | inactive
Iqcb1 (IQ calmodulin-binding motif containing 1) | SID363540385 | 84.6 | 60.5 | inactive
Iqcb1 (IQ calmodulin-binding motif containing 1) | SID363542137 | 78.2 | 76.6 | inactive
Iqcb1 (IQ calmodulin-binding motif containing 1) | SID363567053 | 77.3 | 54.8 | inactive
Cnpy3 (canopy FGF signaling regulator 3) | SID363540732 | 93.5 | 120 | inactive
Cnpy3 (canopy FGF signaling regulator 3) | SID363543183 | 89.9 | 101 | inactive
Cnpy3 (canopy FGF signaling regulator 3) | SID363552676 | 85.4 | 91.8 | inactive
Man2b1 (mannosidase 2, alpha B1) | SID363569965 | 84.3 | 137 | inactive
Man2b1 (mannosidase 2, alpha B1) | SID363577005 | 63.3 | 89.7 | inactive
Man2b1 (mannosidase 2, alpha B1) | SID363578413 | 65.2 | 81.6 | inactive
Tgif1 (TGFB-induced factor homeobox 1) | SID363541081 | 46.5 | 48 | inactive
Tgif1 (TGFB-induced factor homeobox 1) | SID363555708 | 72.8 | 78.9 | inactive
Tgif1 (TGFB-induced factor homeobox 1) | SID363565997 | 59.3 | 80.4 | inactive
Nsd1 (nuclear receptor-binding SET-domain protein 1) | SID363545904 | 58.3 | 46.4 | inactive
Nsd1 (nuclear receptor-binding SET-domain protein 1) | SID363549417 | 83.4 | 73.8 | inactive
Nsd1 (nuclear receptor-binding SET-domain protein 1) | SID363563223 | 68.1 | 71.5 | inactive
H2-Q6 (histocompatibility 2, Q region locus 6) | SID363553805 | 20.7 | 36.2 | inactive
H2-Q6 (histocompatibility 2, Q region locus 6) | SID363561762 | 65.2 | 61.2 | inactive
H2-Q6 (histocompatibility 2, Q region locus 6) | SID363565500 | 67.3 | 46.2 | inactive
Hmbox1 (homeobox containing 1) | SID363539893 | 83.7 | 74.4 | inactive
Hmbox1 (homeobox containing 1) | SID363561194 | 109 | 54.8 | inactive
Hmbox1 (homeobox containing 1) | SID363564230 | 97 | 62.5 | inactive
